Measured values from patent US8871460B2, “Gamma-secretase modulatory compounds, methods for identifying same, and uses therefor” (Neurogenetic Pharmaceuticals, Inc., priority 2009, dated 2014).
Some of these results come from one statement about several compounds together. For at least one compound, name, drawing or mass did not settle the structure.

Columns and labels:
gamma-secretase = test: Secreted Aβ40 sandwich ELISA in HEK293 cells overexpressing APP751 and NΔE/S2; assay type: cell-based; details: 18 h
CHO-APPSwe cells = test: Alamar Blue cytotoxicity assay; assay type: cell-based, Chinese Hamster; details: each well of the ELISA dose-response, 18 h

SMILES	lowering of secreted Aβ1-40 levels (gamma-secretase; 30 μM) [%]	Cytotoxicity (CHO-APPSwe cells)	lowering of secreted Aβ1-40 levels (gamma-secretase; 1 μM) [%]
COc1cc(C)c(Nc2nc(-c3ccc(-n4cnc(C)c4)c(F)c3)cs2)cc1C(C)C [Compound 2]	> 90	less than 30%	
C[C@H](NC(=O)Cc1cc(F)cc(F)c1)C(=O)N[C@H](C(=O)OC(C)(C)C)c1ccccc1 [DAPT, N—[N-(3,5-Difluorophenacetyl-L-alanyl)]S-phenylglycine t-butyl ester, reference compound]			> 90
